Part of at least one peptide drawing is inferred or uncertain, most often the ends. Some compounds share one wording; it may come from a single statement. Positions of bridges follow the written chain, without caps; N, C: chain ends. Non-standard residues stand in square brackets, D forms with d. Residues, ends and D or L forms follow the SMILES beside them.
Biological target: human DUB module (hDUBm) on H2B-K120 ubiquitinated nucleosomes (Homo sapiens, UniProt Q9UPT9)
Experiment: Deubiquitination of nucleosomal H2B by hDUBm
Details: 1 μM cyclic peptide, 200 nM hDUBm, 1 uM H2B-Ub nucleosome

By UniProt entry, the sequences of proteins in these tests, tags left out. Where a name states a change or a piece, a line headed by the entry shows the natural chain unless it says otherwise.
UniProt Q9UPT9: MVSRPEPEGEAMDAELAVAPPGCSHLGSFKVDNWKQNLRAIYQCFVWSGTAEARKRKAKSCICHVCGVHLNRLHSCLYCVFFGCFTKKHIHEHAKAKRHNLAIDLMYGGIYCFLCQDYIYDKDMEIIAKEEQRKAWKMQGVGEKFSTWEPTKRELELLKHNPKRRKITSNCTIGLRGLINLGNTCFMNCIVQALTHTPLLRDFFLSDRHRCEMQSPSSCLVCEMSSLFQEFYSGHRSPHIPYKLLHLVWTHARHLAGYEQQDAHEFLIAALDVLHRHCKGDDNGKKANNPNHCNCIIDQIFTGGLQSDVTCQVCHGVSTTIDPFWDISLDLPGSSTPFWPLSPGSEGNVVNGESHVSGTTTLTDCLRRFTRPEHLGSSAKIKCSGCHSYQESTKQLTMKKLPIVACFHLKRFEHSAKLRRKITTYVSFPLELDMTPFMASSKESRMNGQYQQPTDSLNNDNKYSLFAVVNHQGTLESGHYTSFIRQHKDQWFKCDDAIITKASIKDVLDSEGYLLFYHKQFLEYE

SMILES	inhibition of nucleosomal H2B-Ub cleavage by hDUBm
CC[C@H](C)[C@@H]1NC(=O)[C@H](Cc2c[nH]c3ccccc23)NC(=O)[C@@H](Cc2ccc(O)cc2)NC(=O)CSC[C@@H](C(N)=O)NC(=O)[C@H](Cc2ccccc2)NC(=O)[C@H](CO)NC(=O)[C@H](CCCCN)NC(=O)[C@H](CO)NC(=O)[C@H](CC(C)C)NC(=O)CNC(=O)[C@H](CCCNC(=N)N)NC(=O)[C@H](Cc2ccc(O)cc2)NC(=O)[C@H](CO)NC(=O)[C@H](Cc2c[nH]cn2)NC(=O)[C@H]([C@@H](C)O)NC1=O [hD4] ({CH2CO}-[dY]WITHSYRGLSKSFC-NH2; thioether N-15)	very weak inhibition
CC[C@H](C)[C@@H]1NC(=O)[C@H](Cc2c[nH]cn2)NC(=O)[C@H](CC(=O)O)NC(=O)[C@H](CO)NC(=O)[C@H](Cc2c[nH]c3ccccc23)NC(=O)[C@H](Cc2ccccc2)NC(=O)[C@H](CCCNC(=N)N)NC(=O)[C@H](Cc2ccccc2)NC(=O)[C@H](CC(N)=O)NC(=O)[C@H](CC(C)C)NC(=O)[C@H]([C@@H](C)O)NC(=O)[C@H](Cc2ccc(O)cc2)NC(=O)CSC[C@@H](C(N)=O)NC(=O)[C@H](CO)NC(=O)[C@H](Cc2ccc(O)cc2)NC(=O)[C@H](Cc2c[nH]c3ccccc23)NC(=O)[C@H](CO)NC1=O [hL1] ({CH2CO}-YTLNFRFWSDHISWYSC-NH2; thioether N-17)	inhibit the enzymatic activity
C[C@@H]1NC(=O)CNC(=O)[C@H](CCCNC(=N)N)NC(=O)[C@H](Cc2ccc(O)cc2)NC(=O)[C@H](CO)NC(=O)[C@H](Cc2c[nH]c3ccccc23)NC(=O)[C@H](CCC(N)=O)NC(=O)[C@H](Cc2c[nH]cn2)NC(=O)[C@@H](Cc2ccc(O)cc2)NC(=O)CSC[C@@H](C(N)=O)NC(=O)[C@H](CO)NC(=O)[C@H](CCCNC(=N)N)NC(=O)[C@H](Cc2ccc(O)cc2)NC(=O)[C@H]([C@@H](C)O)NC1=O [hD2] ({CH2CO}-[dY]HQWSYRGATYRSC-NH2; thioether N-14)	inhibit the enzymatic activity

— patent US20240228543A1, “CYCLIC PEPTIDE INHIBITORS OF USP22” (THE JOHNS HOPKINS UNIVERSITY, priority 2021, published 2024)
